Results: paper doi:10.1101/2022.08.30.505852
No constants are given. Whether binding was seen depends on the method and setting. Some entries that bind do so weakly or less than the wild type.

The chains behind the UniProt entries cited, without tags or fusion partners. A line that says so, or that is headed by a name, gives the form on record, which may keep a tag or linker. Residues count along the entry.
βCAT_(CTERM), β-catenin residues 666-781 (P35222, residues 666-781): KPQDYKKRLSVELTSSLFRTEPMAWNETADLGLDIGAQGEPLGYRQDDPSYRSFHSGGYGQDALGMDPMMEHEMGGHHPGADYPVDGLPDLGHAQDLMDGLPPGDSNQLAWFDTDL
GB1-βCAT_(666-729), β-catenin residues 666-729 fused to GB1 (P35222, residues 666-729): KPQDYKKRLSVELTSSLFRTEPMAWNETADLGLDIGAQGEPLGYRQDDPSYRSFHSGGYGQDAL
GB1-βCAT_(TAD2), β-catenin residues 730-781 fused to GB1 (P35222, residues 730-781): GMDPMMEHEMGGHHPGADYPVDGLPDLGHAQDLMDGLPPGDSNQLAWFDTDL
βCAT_(750-781), β-catenin residues 750-781 (P35222, residues 750-781): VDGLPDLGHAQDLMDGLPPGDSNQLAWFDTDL
TAZ1 domain of CBP (residues 346-440) (Q92793, residues 346-440): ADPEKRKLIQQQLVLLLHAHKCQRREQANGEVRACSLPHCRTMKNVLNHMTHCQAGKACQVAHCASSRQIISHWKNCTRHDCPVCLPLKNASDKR
KIX domain of CBP (residues 586-673) (Q92793, residues 586-673): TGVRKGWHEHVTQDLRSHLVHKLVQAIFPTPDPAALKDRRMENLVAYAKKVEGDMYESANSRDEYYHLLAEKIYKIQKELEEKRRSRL

Columns and labels:
[1] = molecular target: GB1-βCAT_(CTERM), β-catenin residues 666-781 fused to the B1 domain of Streptococcus protein G (human) (UniProt P35222); test: pull-down
[2] = molecular target: GB1-βCAT_(666-729), β-catenin residues 666-729 fused to GB1 (human) (UniProt P35222); test: pull-down
[3] = molecular target: GB1-βCAT_(TAD2), β-catenin residues 730-781 fused to GB1 (human) (UniProt P35222); test: pull-down
[4] = molecular target: TAZ1 domain of CBP (residues 346-440) (UniProt Q92793); test: NMR titration
[5] = molecular target: βCAT_(CTERM), β-catenin residues 666-781 (human) (UniProt P35222); test: NMR titration
[6] = molecular target: βCAT_(750-781), β-catenin residues 750-781 (human) (UniProt P35222); test: NMR titration

Row | Substance | binding [1] | binding [2] | binding [3] | binding [4] | binding [5] | binding [6]
1 | KIX domain of CBP (residues 586-673) (from UniProt Q92793 586-673) (domain or fragment) | no binding (tested: 20 nmoles) | no binding (tested: 20 nmoles) | no binding (tested: 20 nmoles) |  |  | 
2 | βCAT_(750-781), β-catenin residues 750-781 (from UniProt P35222 750-781) (peptide) |  |  |  | binds |  | 
3 | TAZ1 domain of CBP (residues 346-440) (from UniProt Q92793 346-440) (domain or fragment) | binds |  | binds |  | binds | binds
